According to US20150272931A1, “New Treatment” (priority 2012, published 2015):

Test: Feed consumption: dose achieved in treatment groups based on uneaten feed (in-feed treatment)
Type: in vivo, Atlantic salmon
Conditions: for food-uptake (suitability for in-feed treatment of salmon): at medium and higher concentrations of added active ingredient in the food; for % of target dose achieved: based on uneaten feed
[1] = nominal dose 1 mg/kg/day in feed for seven days
[2] = nominal dose 5 mg/kg/day in feed for seven days
[3] = nominal dose 10 mg/kg/day in feed for seven days

Row | Compound | food-uptake (suitability for in-feed treatment of salmon) | % of target dose achieved [1] [%] | % of target dose achieved [2] [%] | % of target dose achieved [3] [%]
1 | C/C(=N\C#N)N(C)Cc1ccc(Cl)nc1 [Acetamiprid, acetamiprid] | reduced to an unacceptable level | 98 | 62 | 38
2 | CN/C(=N\[N+](=O)[O-])NCc1cnc(Cl)s1 [Clothianidin, (E)-1-(2-Chlor-1,3-thiazol-5-ylmethyl)-3-methyl-2-nitroguanidin] |  | 99 | 98 | 97
3 | O=[N+]([O-])NC1=NCCN1Cc1ccc(Cl)nc1 [Imidacloprid, imidacloprid] | reduced to an unacceptable level | 100 | 77 | 33
4 | CCN(Cc1ccc(Cl)nc1)/C(=C/[N+](=O)[O-])NC [Nitenpyram, nitenpyram] |  | 108 | 96 | 92
